The campaign covered roughly 400,000 compounds. About 13,000 (3.2%) were called active. Inconclusive results, whose numbers are uncertain, are shown with a selection of clear calls. The call rests on the fitted dose curve; in most records, active means well fitted cell-killing curve with a large enough effect; inconclusive means small, poorly fitted or top-dose-only effect, or effect the other way; inactive means flat fitted curve, though single readings scatter. Where the call is inconclusive, the potency comes from a doubtful curve fit.
Assay: qHTS assay for MDR1-selective chemotherapeutics: Primary screen using the drug-selected MDR subline cells KB-V1; further: nearly all actives have a fitted effect of over 60% in size
Conditions: KB-V1 MDR cells viability, CellTiter-Glo, 72 h; activity change, negative = cytotoxicity: at 46.1 µM (top of the series)
How it was run: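 Potencies derive from concentration-effect curves fitted to normalized luminescence (CellTiter-Glo) of KB-V1 cells treated for 72 h at 37 degrees C in phenol-red-free DMEM containing 10% FBS.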
On the % scale 0 is the no-effect control and ±100 the full control effect; potency means the concentration at half of the fitted maximal effect.

Row | SMILES | Potency | activity change, negative = cytotoxicity
1 | CCOc1ccc2nc(SCC3CC3(Cl)Cl)[nH]c2c1 (stereo not given) | inconclusive: 32.6 µM [cytotoxic, partial curve, poor fit] | –
2 | O=C1C2C3C=CC(C3)C2C(=O)N1c1n[nH]c(CCc2ccccc2)n1 (stereo not given) | – | inactive: 22.5%
3 | c1ccc(CCNc2ncnc3scc(C4COc5ccccc5O4)c23)cc1 (stereo not given) | active: 13 µM | –
4 | CCOC(=O)CSC1=NC(=O)CS1 | – | inactive: -7.96%
5 | Cc1c(C)c2cc3c(c(C)c2oc1=O)OCN(CCc1ccccc1)C3 | inconclusive: 0.0065 µM [cytotoxic, full curve, poor fit] | –
6 | CCOc1ccc2nc(SCC(=O)NC3CCCc4ccccc43)sc2c1 (stereo not given) | inconclusive: 29.1 µM [cytotoxic, single point] | –
7 | CCOC(=O)C1=C(O)C(=O)NC(c2ccccc2)=C(OC2CCCCC2)C1 | active: 14.6 µM | –
8 | COc1ccccc1NC(=O)/C=C1\SCC(=O)N1C | inconclusive: 0.517 µM [rising, full curve, poor fit] | –
9 | COc1ccc(-c2csc(NC(=O)c3cccc(S(=O)(=O)N4CCN(C)CC4)c3)n2)cc1 | – | inactive: 0%
10 | CC(C)Cc1nnc(NC(=O)C2=COCCO2)s1 | inconclusive: 16.4 µM [rising, single point] | –
11 | CCN(CC)CC(=O)Nc1ccccc1SCC(=O)Nc1ccsc1C(=O)OC | inconclusive: 11.6 µM [cytotoxic, partial curve] | –
12 | Cc1ccc(Cc2c(-c3ccc(F)cc3)nc3cc(C)ccn23)cc1 | – | inactive: -3.96%
13 | COc1cc2c(cc1OC)CN(C(=O)C1CCC(=O)N(CCCN3CCOCC3)C1)CC2 (stereo not given) | – | inactive: 4.53%
14 | Cc1cc2c(cc1C)-n1nnnc1C(N(Cc1ccccc1)Cc1ccccc1)C(=O)N2 (stereo not given) | inconclusive: 11.6 µM [cytotoxic, partial curve] | –
15 | Cc1[nH]n(-c2ccccc2)c(=O)c1N=Nc1ccccc1C(=O)N1CCOCC1 | inconclusive: 23.1 µM [cytotoxic, single point] | –
16 | Cc1ccc2nsnc2c1NC(=O)c1ccc(-c2cc(Cl)ccc2Cl)o1 | inconclusive: 23.1 µM [cytotoxic, single point] | –
17 | CCCC/C=C/[C@H](c1ccccc1)[C@H](CO)Cc1cccnc1 | inconclusive: 20.6 µM [rising, single point] | –
18 | O=C(C1=C[C@H](c2csc3ccccc23)C[C@H](OCCCCO)O1)N1CCN(Cc2ccc3c(c2)OCO3)CC1 | inconclusive: 29.1 µM [cytotoxic, single point] | –
19 | Cc1cc(C)n2c(SCc3ccccc3Cl)nnc2n1 | inconclusive: 14.6 µM [cytotoxic, partial curve, poor fit] | –
20 | Cc1csc2nc(O)c(C(=O)NC3CCCCC3)c(=O)n12 | active: 20.6 µM | –
21 | O=C1CN(N=Cc2ccco2)C(=O)N1 | inconclusive: 20.6 µM [rising, single point] | –
22 | Cc1cc2nc(C3CCCCC3)c(Cc3ccsc3)n2c(C)c1Br | inconclusive: 23.1 µM [cytotoxic, partial curve] | –
23 | Cc1c(Cl)cccc1NC(=O)CSc1ccc(-c2ccccn2)nn1 | – | inactive: -3.11%

In another format: results already given.
Row,SMILES,Potency,"activity change, negative = cytotoxicity"
22,Cc1cc2nc(C3CCCCC3)c(Cc3ccsc3)n2c(C)c1Br,"inconclusive: 23.1 µM [cytotoxic, partial curve]",–
23,Cc1c(Cl)cccc1NC(=O)CSc1ccc(-c2ccccn2)nn1,–,inactive: -3.11%

Later entries

Row | SMILES | Potency | activity change, negative = cytotoxicity
24 | CCN1CCN(C(=S)Nc2ccc3nc(N4CCN(CC)CC4)cc(C)c3c2)CC1 | – | inactive: -4.94%
25 | CC(=O)Oc1ccc(/C=c2\sc3ncnn3c2=O)cc1 | – | inactive: 6.88%
26 | COc1cccc(Nc2cc(C)nc3ccccc23)c1 | inconclusive: 18.4 µM [cytotoxic, partial curve, poor fit] | –
27 | N#Cc1ccc(OCC(=O)Nc2ccncc2)cc1 | inconclusive: 20.6 µM [cytotoxic, single point] | –
28 | COc1ccc(NC(=O)CN2CCN(Cc3ccccc3Cl)S2(=O)=O)cc1Cl | inconclusive: 29.1 µM [cytotoxic, single point] | –
29 | COc1ccc(S(=O)(=O)N2CCN(Cc3ccccc3)CC2)c(C)c1 | inconclusive: 16.4 µM [cytotoxic, partial curve, poor fit] | –
30 | COc1ccc(CCC(=O)N2CCN(S(=O)(=O)c3cccc(C(F)(F)F)c3)CC2)cc1OC | – | inconclusive: 0%
31 | CSc1cccc(NC(=O)CN(Cc2ccc(Cl)cc2)S(C)(=O)=O)c1 | active: 11.6 µM | –
32 | CCc1ccccc1NS(=O)(=O)c1ccc2c(c1)CCCN2C(=O)C1CCC1 | inconclusive: 29.1 µM [cytotoxic, single point] | –
33 | COc1ccc(NC(=O)c2cc(-c3ccccc3Cl)on2)cc1 | inconclusive: 18.4 µM [cytotoxic, partial curve, poor fit] | –
34 | COc1ccc(CCC(=O)Nc2nc3ccccc3[nH]2)cc1OC | – | inactive: 0%
35 | Cc1cc(C(=O)N2CCN(C/C=C/c3ccccc3)CC2)no1 | inconclusive: 16.4 µM [cytotoxic, partial curve] | –
36 | O=C(Nc1cccnc1Cl)c1cc([N+](=O)[O-])ccc1Cl | – | inactive: 1.97%
37 | Cc1cc(C)nc(NS(=O)(=O)c2ccc(NC(=O)c3snnc3C)cc2)n1 | inconclusive: 29.1 µM [rising, single point] | –
38 | Cc1cc(C)c(S(=O)(=O)N2CCCOC2CNC(=O)C(=O)NCCc2c[nH]c3ccccc23)c(C)c1 (stereo not given) | active: 16.4 µM | –
39 | O=C(Nc1ccc(S(=O)(=O)N2CCCC2)cc1)c1ccccc1 | inconclusive: 11.6 µM [cytotoxic, partial curve, poor fit] | –
40 | Cn1c(NCc2ccccc2F)nc2cc(-c3ccccc3)sc2c1=O | inconclusive: 10.3 µM [cytotoxic, partial curve] | –
41 | COc1cc(/C=N/NC(=O)CN2CCOCC2)ccc1OCc1ccccc1 | inconclusive: 13 µM [rising, partial curve, poor fit] | –
42 | CN1CCN(/N=C/c2c3ccccc3c(Cl)c3ccccc23)CC1 | inconclusive: 14.6 µM [cytotoxic, partial curve] | –
43 | CCN1C(=O)N[C@@H](c2cccc(C(F)(F)F)c2)[C@H](C(=O)OC)[C@H]1C | – | inactive: -9.64%
44 | O=c1c2ccccc2cnn1Cc1ccc(Cl)c(Cl)c1 | inconclusive: 29.1 µM [cytotoxic, single point] | –
45 | COc1cccc(/C=C/C(=O)N2CCN(S(=O)(=O)c3ccccc3)CC2)c1 | inconclusive: 20.6 µM [cytotoxic, single point] | –

From PubChem BioAssay AID1347076 (National Center for Advancing Translational Sciences (NCATS), 2019)
